{"sequences": {"note": "By UniProt entry, the sequences of proteins in these tests, tags left out.", "UniProt Q51561": "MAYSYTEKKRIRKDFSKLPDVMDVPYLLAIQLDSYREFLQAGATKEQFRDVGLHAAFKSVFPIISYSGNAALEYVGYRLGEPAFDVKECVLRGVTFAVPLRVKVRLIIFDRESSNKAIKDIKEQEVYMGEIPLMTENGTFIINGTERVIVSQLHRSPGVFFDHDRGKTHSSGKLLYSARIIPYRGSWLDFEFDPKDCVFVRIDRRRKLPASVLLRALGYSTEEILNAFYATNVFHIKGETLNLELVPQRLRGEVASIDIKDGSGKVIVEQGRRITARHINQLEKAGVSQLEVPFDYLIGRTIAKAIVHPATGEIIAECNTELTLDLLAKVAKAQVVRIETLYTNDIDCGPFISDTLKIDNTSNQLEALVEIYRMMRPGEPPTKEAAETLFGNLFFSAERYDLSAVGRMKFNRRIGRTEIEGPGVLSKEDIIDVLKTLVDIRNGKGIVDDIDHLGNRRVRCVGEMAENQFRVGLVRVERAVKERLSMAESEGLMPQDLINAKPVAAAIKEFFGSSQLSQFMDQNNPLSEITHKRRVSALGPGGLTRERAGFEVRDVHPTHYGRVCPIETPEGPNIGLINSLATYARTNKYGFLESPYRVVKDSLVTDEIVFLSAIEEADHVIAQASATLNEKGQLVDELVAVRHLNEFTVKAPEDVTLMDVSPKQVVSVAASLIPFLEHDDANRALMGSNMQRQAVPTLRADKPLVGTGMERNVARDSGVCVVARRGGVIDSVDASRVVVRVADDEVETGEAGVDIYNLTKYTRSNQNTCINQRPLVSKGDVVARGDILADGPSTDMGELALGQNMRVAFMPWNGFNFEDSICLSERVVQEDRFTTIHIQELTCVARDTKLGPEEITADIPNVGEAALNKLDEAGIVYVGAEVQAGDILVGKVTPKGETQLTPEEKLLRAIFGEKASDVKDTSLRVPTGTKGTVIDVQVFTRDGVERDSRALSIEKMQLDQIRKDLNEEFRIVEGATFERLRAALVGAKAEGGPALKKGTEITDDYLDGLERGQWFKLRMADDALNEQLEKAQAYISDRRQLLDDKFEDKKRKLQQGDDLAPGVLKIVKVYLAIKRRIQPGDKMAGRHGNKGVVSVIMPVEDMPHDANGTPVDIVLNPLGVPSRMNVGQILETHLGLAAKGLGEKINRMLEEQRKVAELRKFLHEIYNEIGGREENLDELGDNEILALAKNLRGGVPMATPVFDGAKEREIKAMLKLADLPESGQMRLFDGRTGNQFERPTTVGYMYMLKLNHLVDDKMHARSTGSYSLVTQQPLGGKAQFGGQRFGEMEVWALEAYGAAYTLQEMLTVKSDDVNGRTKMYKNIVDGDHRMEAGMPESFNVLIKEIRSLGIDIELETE"}, "source": "paper PMC8081920", "molecular_target": "DksA1 with a 3XFLAG tag at its C-terminus (DksA1::3xFLAG) (Pseudomonas aeruginosa PAO1) (UniProt Q9KKG5)", "experiment": "co-IP; lysate of PAO1 dksA1::3xFLAG grown 6 to 8 h in LB with DMSO, 150 μM Dkstatin-1 or 150 μM Dkstatin-2; M2 anti-FLAG magnetic beads overnight at 4 °C; lysis buffer 50 mM Tris-HCl pH 7.5, 75 mM NaCl, 10 mM MgCl2, 10% glycerol, 1 mM EDTA, 0.01% Triton X-100; one wash; blot with anti-RpoB", "note": "These are yes or no findings as the source states them, for the method shown. In cells and extracts the contact can be indirect. Binding can be weak; no strength is given."}
{"substance": "RNA polymerase β subunit (RpoB) (from UniProt Q51561 1-1357)", "values": [{"measurement": "binding", "value": "binds"}]}
